Experimental findings from doi:10.1101/569459 (bioRxiv, 2019) are described below.

Protein sequences, listed by entry. Tags and fused reporters are not part of them. Lines headed by an entry give the natural chain unless they say otherwise; changes in a name come on top.
UniProt O14578, whole entry, stated change not applied: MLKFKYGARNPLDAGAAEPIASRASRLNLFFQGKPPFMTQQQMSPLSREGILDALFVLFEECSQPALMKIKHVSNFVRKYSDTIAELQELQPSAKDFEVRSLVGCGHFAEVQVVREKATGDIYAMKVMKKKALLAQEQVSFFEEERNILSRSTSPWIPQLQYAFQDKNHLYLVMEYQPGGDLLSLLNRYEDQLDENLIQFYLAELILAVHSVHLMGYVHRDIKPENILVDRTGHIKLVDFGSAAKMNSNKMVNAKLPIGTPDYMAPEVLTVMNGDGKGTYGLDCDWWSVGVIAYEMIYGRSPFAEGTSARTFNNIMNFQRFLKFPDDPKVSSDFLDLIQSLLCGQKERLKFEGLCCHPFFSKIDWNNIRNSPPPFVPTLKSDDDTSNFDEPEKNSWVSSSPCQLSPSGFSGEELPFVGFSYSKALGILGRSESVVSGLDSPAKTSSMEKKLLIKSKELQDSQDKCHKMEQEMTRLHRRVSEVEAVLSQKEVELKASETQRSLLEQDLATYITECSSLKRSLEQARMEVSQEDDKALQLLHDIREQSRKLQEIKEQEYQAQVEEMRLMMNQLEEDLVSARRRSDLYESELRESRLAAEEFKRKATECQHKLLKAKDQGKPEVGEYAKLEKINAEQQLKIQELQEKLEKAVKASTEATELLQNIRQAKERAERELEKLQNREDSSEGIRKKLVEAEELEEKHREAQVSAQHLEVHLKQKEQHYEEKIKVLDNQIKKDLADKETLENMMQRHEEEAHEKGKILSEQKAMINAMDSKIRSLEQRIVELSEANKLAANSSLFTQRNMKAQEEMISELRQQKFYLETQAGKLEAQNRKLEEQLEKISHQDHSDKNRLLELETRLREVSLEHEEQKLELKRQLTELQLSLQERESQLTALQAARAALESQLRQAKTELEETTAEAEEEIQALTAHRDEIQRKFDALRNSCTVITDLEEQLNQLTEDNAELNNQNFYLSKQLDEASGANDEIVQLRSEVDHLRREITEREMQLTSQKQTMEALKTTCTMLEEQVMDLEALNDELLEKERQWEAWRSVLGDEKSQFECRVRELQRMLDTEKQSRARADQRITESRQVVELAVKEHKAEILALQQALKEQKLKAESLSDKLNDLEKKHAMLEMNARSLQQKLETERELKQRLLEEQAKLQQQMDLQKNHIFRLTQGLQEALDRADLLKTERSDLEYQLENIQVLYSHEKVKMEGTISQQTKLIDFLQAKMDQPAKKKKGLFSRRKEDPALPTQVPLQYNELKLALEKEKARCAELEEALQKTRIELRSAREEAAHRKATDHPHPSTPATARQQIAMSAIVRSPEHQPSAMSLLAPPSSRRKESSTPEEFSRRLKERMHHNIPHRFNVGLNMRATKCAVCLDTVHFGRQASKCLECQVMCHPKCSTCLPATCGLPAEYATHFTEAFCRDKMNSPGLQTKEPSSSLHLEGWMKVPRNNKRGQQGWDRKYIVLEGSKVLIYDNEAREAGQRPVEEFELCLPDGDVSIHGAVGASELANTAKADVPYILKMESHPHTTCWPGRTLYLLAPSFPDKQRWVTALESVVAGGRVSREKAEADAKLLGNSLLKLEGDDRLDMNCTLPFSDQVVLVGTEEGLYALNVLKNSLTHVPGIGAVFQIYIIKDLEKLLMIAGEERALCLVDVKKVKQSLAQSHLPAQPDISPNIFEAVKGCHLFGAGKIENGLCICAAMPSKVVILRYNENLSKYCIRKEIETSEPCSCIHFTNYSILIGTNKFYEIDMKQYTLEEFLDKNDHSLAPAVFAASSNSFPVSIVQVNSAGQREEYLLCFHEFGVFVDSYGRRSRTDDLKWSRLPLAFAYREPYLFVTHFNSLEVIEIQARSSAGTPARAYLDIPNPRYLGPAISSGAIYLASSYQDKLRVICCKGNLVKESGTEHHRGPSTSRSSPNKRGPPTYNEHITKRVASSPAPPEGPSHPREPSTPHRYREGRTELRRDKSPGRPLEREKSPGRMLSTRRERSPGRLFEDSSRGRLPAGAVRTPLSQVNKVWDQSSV
UniProt Q15058, whole entry, stated change not applied: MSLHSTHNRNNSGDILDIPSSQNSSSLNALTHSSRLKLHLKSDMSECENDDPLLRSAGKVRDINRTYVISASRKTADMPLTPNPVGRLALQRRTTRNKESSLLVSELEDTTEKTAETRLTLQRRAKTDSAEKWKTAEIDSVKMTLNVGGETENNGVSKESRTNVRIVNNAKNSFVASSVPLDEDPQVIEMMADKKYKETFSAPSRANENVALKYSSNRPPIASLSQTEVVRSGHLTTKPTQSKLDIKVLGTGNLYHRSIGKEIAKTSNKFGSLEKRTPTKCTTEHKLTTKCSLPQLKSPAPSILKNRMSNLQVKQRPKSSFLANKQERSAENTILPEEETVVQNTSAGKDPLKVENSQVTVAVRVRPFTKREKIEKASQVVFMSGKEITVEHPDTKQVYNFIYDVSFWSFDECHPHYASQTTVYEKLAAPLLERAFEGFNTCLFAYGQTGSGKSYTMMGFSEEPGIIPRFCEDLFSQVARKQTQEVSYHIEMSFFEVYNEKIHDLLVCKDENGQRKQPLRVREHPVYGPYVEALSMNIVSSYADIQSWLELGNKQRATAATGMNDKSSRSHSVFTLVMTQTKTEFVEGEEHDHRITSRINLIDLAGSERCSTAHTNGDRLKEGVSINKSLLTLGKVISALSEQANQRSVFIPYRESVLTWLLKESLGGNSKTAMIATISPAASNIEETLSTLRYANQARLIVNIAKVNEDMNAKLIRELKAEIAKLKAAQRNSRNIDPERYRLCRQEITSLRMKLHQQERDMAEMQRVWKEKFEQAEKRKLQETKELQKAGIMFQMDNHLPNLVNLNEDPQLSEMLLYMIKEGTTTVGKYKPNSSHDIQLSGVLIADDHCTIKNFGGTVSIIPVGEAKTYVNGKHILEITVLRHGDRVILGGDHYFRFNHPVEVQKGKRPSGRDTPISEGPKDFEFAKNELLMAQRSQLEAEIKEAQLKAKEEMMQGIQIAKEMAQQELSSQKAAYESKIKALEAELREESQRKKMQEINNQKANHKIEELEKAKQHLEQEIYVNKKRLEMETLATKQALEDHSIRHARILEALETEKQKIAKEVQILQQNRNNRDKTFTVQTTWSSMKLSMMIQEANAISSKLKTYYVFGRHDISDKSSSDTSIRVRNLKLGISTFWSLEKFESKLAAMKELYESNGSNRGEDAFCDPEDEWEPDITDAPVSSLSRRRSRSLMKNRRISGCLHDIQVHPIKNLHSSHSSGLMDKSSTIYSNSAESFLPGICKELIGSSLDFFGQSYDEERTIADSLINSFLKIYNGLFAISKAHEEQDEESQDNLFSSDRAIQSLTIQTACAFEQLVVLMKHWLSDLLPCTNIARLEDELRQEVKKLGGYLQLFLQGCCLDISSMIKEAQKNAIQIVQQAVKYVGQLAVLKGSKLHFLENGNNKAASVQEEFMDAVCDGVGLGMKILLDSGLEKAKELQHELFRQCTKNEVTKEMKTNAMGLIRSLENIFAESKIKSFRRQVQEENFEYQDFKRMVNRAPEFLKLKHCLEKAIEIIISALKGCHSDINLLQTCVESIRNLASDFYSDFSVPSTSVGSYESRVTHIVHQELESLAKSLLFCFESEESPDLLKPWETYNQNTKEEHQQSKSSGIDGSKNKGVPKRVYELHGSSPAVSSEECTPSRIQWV

For test [1], the target named is Citron kinase tagged with GFP (CIT-K::AcGFP) (UniProt O14578). Kind of test: affinity purification with mass spectrometry.
The target in test [2] is KIF14 (tagged bait of the AP-MS) (UniProt Q15058). Kind of test: affinity purification with mass spectrometry.

No constants are given. Whether binding was seen depends on the method and setting. Binding seen in cells or lysates may run through a third protein. These calls come from enrichment with a bait or labelling near it, and not all partners need be listed.

B1: microtubule depolymerizing kinesin KIF2C/MCAK (protein, UniProt Q99661 1-725)
chain: MAMDSSLQARLFPGLAIKIQRSNGLIHSANVRTVNLEKSCVSVEWAEGGATKGKEIDFDDVAAINPELLQLLPLHPKDNLPLQENVTIQKQKRRSVNSKIPAPKESLRSRSTRMSTVSELRITAQENDMEVELPAAANSRKQFSVPPAPTRPSCPAVAEIPLRMVSEEMEEQVHSIRGSSSANPVNSVRRKSCLVKEVEKMKNKREEKKAQNSEMRMKRAQEYDSSFPNWEFARMIKEFRATLECHPLTMTDPIEEHRICVCVRKRPLNKQELAKKEIDVISIPSKCLLLVHEPKLKVDLTKYLENQAFCFDFAFDETASNEVVYRFTARPLVQTIFEGGKATCFAYGQTGSGKTHTMGGDLSGKAQNASKGIYAMASRDVFLLKNQPCYRKLGLEVYVTFFEIYNGKLFDLLNKKAKLRVLEDGKQQVQVVGLQEHLVNSADDVIKMIDMGSACRTSGQTFANSNSSRSHACFQIILRAKGRMHGKFSLVDLAGNERGADTSSADRQTRMEGAEINKSLLALKECIRALGQNKAHTPFRESKLTQVLRDSFIGENSRTCMIATISPGISSCEYTLNTLRYADRVKELSPHSGPSGEQLIQMETEEMEACSNGALIPGNLSKEEEELSSQMSSFNEAMTQIRELEEKAMEELKEIIQQGPDWLELSEMTEQPDYDLETFVNKAESALAQQAKHFSALRDVIKALRLAMQLEEQASRQISSKKRPQ
Turning to B1, the binding result in test [1] and in test [2] was “binds” each time.
